# Some of the results follow.
# The chains behind the UniProt entries cited, without tags or fusion partners.
# UniProt Q0JBA9, entry or part of it: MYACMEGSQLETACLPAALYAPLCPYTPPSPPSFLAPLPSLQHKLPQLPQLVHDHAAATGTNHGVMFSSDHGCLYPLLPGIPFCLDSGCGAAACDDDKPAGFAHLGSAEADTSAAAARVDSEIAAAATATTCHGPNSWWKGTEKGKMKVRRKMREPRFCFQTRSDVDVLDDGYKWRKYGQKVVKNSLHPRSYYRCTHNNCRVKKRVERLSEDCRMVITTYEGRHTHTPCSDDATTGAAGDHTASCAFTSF
# Molecular target: OsWRKY34 (Oryza sativa, UniProt Q0JBA9 1-250)
# Assay: protein-binding microarray (RPBM); PBS, 2% BSA, 51.3 ng/ul salmon testes DNA, 50 uM zinc acetate, 200 nM TF, 25 C, 1 h; high values mean tight binding
# Details: protein: recombinant; tags: N-terminal polyhistidine and DsRed monomer fusion (pET32a); label: CyDye5-dUTP incorporated in the synthesized complementary strand; 3' TTTTT single-stranded linker to array surface; dsDNA, one strand shown
# How it was run: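 Binding signal is defined as the fluorescence intensity of each feature in arbitrary units, read on an Axon 4000B scanner. Transcription factors with N-terminal polyhistidine and DsRed fusions came from E. coli BL21-CodonPlus and were purified on Ni–NTA. They were incubated at 200 nM for 1 h at 25 °C on a custom Agilent array that had been made double-stranded with Cy5-dUTP, with 50 µM zinc acetate present, and the array was washed.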
row,Sequence,binding signal
1,GTATTGCAATTTTTTTTTGTTTGTGTTGTATCTGTTCTCTCGGAGTCACCTAGTGCAG,8110 fluorescence intensity (a.u.)
2,CCAACCTATTGCATTGCTACCTCATCCATGTACAAATGTTCGGAGTCACCTAGTGCAG,8230 fluorescence intensity (a.u.)
3,TGTACTCCTCTTGCCTTCTATCTATCCCCTGATCCCTCCCCGGAGTCACCTAGTGCAG,8680 fluorescence intensity (a.u.)
4,AACCATAAAACATGTGATTCTTTTTTTTAACCAAAACTTACGGAGTCACCTAGTGCAG,8130 fluorescence intensity (a.u.)
5,CTAGGAATCGCCAACGCTCGTTTCCAGTAGTTCTCTTGTTCGGAGTCACCTAGTGCAG,9500 fluorescence intensity (a.u.)
6,CATACTACCTCCTTTCTTAATATACGACGCTAACGCTGTTCGGAGTCACCTAGTGCAG,8300 fluorescence intensity (a.u.)
7,CGTCACCTCTTCTCGACGCCTTTTCACCTTTTTATTTGCACGGAGTCACCTAGTGCAG,9010 fluorescence intensity (a.u.)
8,GCGCCATCCCTAATTGTCAGTTTTCCCATTTTGAGCTTCCCGGAGTCACCTAGTGCAG,8320 fluorescence intensity (a.u.)
9,CGGCCCAAGCTTCATTGACAAATTGTCTTGAATTTGTACACGGAGTCACCTAGTGCAG,8510 fluorescence intensity (a.u.)
10,GGACGTGCTCTGTGCTTCGCTTTCCCCGTCTGTGGTTGGTCGGAGTCACCTAGTGCAG,8780 fluorescence intensity (a.u.)
11,GAATATCTGCGCCTTGCTTTCACGGCTACCTTCTTTGCTGCGGAGTCACCTAGTGCAG,9260 fluorescence intensity (a.u.)
12,TAGTTTGCGAACAATGGACTGTTATCCGTCAGTTTTTTTTCGGAGTCACCTAGTGCAG,8100 fluorescence intensity (a.u.)
13,AAAACCCGCAGTCACTCACGGGCTTCTCCGCCACTCCGGACGGAGTCACCTAGTGCAG,8160 fluorescence intensity (a.u.)
14,GAGGCGTGGTTTTAAATAGGTTTAATGGTTTGCAGAATTTCGGAGTCACCTAGTGCAG,9080 fluorescence intensity (a.u.)
15,TCCAAACTGCACCAGCGTCTGTTCTTGTTTCTTCAATAGTCGGAGTCACCTAGTGCAG,8280 fluorescence intensity (a.u.)
16,CTATTAATATATAGTTTCACATATCATACACACATTTTGTCGGAGTCACCTAGTGCAG,9080 fluorescence intensity (a.u.)
17,CCTTCTTCGCGAACTTCTTCTCCTCCTAACAAATCAATCACGGAGTCACCTAGTGCAG,9940 fluorescence intensity (a.u.)
18,TGACTTCCCTACGTTCTCCTCTCTCTCTCGGCTTCCACTCCGGAGTCACCTAGTGCAG,9440 fluorescence intensity (a.u.)
19,TTTTTTCAACGTAATTTCTTTTTTAGCATTAACTTTTAAGCGGAGTCACCTAGTGCAG,8630 fluorescence intensity (a.u.)
20,AGGCCCCTTTTGGGTATGGTCGCTGGTTTTCTTTGCAGTTCGGAGTCACCTAGTGCAG,9110 fluorescence intensity (a.u.)
21,CCCGCGTCAGCCCGCCGTCGTCGCCCGCGTCAGCCCCGCCCGGAGTCACCTAGTGCAG,9560 fluorescence intensity (a.u.)

row,Sequence,binding signal
1,CCTCGCTCGTTCAATCTACTCTAATCTATCTCTATAGGAACGGAGTCACCTAGTGCAG,8360 fluorescence intensity (a.u.)
2,GCCACCGCTGCATCATCCCGCCTGTCTGCCTGCGCGCGCCCGGAGTCACCTAGTGCAG,15800 fluorescence intensity (a.u.)
3,TGGCGGCGGCGGTGGCGGCGGGCGGTGCTCTAATCGGGTCCGGAGTCACCTAGTGCAG,8110 fluorescence intensity (a.u.)
4,GCTCCTCTACTTCTTCCTAGTTCCTTCTCGGTTAGCCCTACGGAGTCACCTAGTGCAG,9180 fluorescence intensity (a.u.)
5,TCCTCTGCTACTACCTGACAAGCTTTGCTTTGCTCGCACGCGGAGTCACCTAGTGCAG,8190 fluorescence intensity (a.u.)
6,CACCATTCATTCAATCTAGTTATTATCTGCTGGGTACTCTCGGAGTCACCTAGTGCAG,10800 fluorescence intensity (a.u.)
7,TTCCAAAAGATATTGCCGTTTTTATTTTTGACACCAATAACGGAGTCACCTAGTGCAG,8210 fluorescence intensity (a.u.)
8,TATTAGGTATCCTGTCCTTTGCTTATGATAGAATACTGACCGGAGTCACCTAGTGCAG,8350 fluorescence intensity (a.u.)
9,GCAATTGTGCGGACCACCCAACTAGTTTCTATTTTATACCCGGAGTCACCTAGTGCAG,8120 fluorescence intensity (a.u.)
10,TCAAATAGGCCGTTGACAAATTTGCTGTCGATTTCACCTTCGGAGTCACCTAGTGCAG,10300 fluorescence intensity (a.u.)
11,CCGGCAACTATAGTGCTTTTCCCGCCCACTCACCCGCCCACGGAGTCACCTAGTGCAG,8510 fluorescence intensity (a.u.)
12,CTTAATTATCGTACCAAGGCTGTTTATTTGTTTTCTAAATCGGAGTCACCTAGTGCAG,9390 fluorescence intensity (a.u.)
13,TGACACCATTGAACGTACTTTATCTTTCTGTCCACACATGCGGAGTCACCTAGTGCAG,8660 fluorescence intensity (a.u.)
14,TTATGCCTACCGTCCCGCGCGCTCTACCCTGCCAGCACAACGGAGTCACCTAGTGCAG,9610 fluorescence intensity (a.u.)
15,AGATGACGCCGTTGACTTTTTCTTACATATTTGACCATTCCGGAGTCACCTAGTGCAG,25400 fluorescence intensity (a.u.)
16,TCTCTCGTTCGGCCCATTTCCCCTGCAAAGTTCATATGTTCGGAGTCACCTAGTGCAG,9200 fluorescence intensity (a.u.)
17,GTCTGAACCACAGTTTTTTTTCAACTGAAAACACATGTAACGGAGTCACCTAGTGCAG,8360 fluorescence intensity (a.u.)
18,AGTTCGTCCATCTAGCCTGACTTCATACTTGCTTCACCTGCGGAGTCACCTAGTGCAG,8390 fluorescence intensity (a.u.)
19,TATATATATATATATATATATATCTTGAAAACGTGATGTGCGGAGTCACCTAGTGCAG,9040 fluorescence intensity (a.u.)
20,TCGAAGTACTCAGATTCTACCATGTCGCATTATCTCATCCCGGAGTCACCTAGTGCAG,9640 fluorescence intensity (a.u.)
21,GCTATGCTACTCCTTTTCCTTAGACTTTTGATTTCCTTTTCGGAGTCACCTAGTGCAG,8840 fluorescence intensity (a.u.)

# Exported with tabs: entries from further up.
row	Sequence	binding signal
5	TCCTCTGCTACTACCTGACAAGCTTTGCTTTGCTCGCACGCGGAGTCACCTAGTGCAG	8190 fluorescence intensity (a.u.)
18	AGTTCGTCCATCTAGCCTGACTTCATACTTGCTTCACCTGCGGAGTCACCTAGTGCAG	8390 fluorescence intensity (a.u.)

# The list continues:

row,Sequence,binding signal
1,CATGTTAATTTTCTACTACAGCTTAGGTTGATGCTATGTTCGGAGTCACCTAGTGCAG,8270 fluorescence intensity (a.u.)
2,GTGGATGTACATAGTTTATGGCCAATTGGACATCCGTGTCCGGAGTCACCTAGTGCAG,8240 fluorescence intensity (a.u.)
3,TCGGATATAGCTTTTCTTTATTTTTCTTTCATCCCTTTTTCGGAGTCACCTAGTGCAG,10700 fluorescence intensity (a.u.)
4,AGTAGTAGTGTATTTCGCTTCGCCTCCAAGTTCCAACCATCGGAGTCACCTAGTGCAG,9790 fluorescence intensity (a.u.)
5,CTACGTCGCCCGTGTCTCGTGCACTTCCTCTCTCGCTGACCGGAGTCACCTAGTGCAG,10300 fluorescence intensity (a.u.)
6,GTAGCGTTGCTTTCTTCATTTCTTCACCTGATATTCCCGTCGGAGTCACCTAGTGCAG,8940 fluorescence intensity (a.u.)
7,TTCTGTGTTCTTCTATATTTTGAGCTTACTTCATGTTTGTCGGAGTCACCTAGTGCAG,8260 fluorescence intensity (a.u.)
8,TTGGTCAGGGTCAACGTTGGTTGCTACTACTACTTGCTACCGGAGTCACCTAGTGCAG,8190 fluorescence intensity (a.u.)
9,CTGGATTGATTGGGAGTGTTGGGTTTCGGGCTAGATCTGGCGGAGTCACCTAGTGCAG,9850 fluorescence intensity (a.u.)
10,TTTTTTACCCCGTTTCATCCTCTGATCGATCTTTACCGCTCGGAGTCACCTAGTGCAG,9470 fluorescence intensity (a.u.)
11,TGCGCAGTAGTACACCACCATCACCACCACCAATGCATGCCGGAGTCACCTAGTGCAG,8060 fluorescence intensity (a.u.)
12,CGCTACCTTGACCCGTACGAAATTTCCTGGGCGAGACTGACGGAGTCACCTAGTGCAG,9970 fluorescence intensity (a.u.)
13,ACTACGTACTGTACCTTCTTCTTCTTCTTTTTTTTTACAACGGAGTCACCTAGTGCAG,12200 fluorescence intensity (a.u.)
14,GCCAACTTCCATTTTACAACCTCCCAGTACTCTTCCATTACGGAGTCACCTAGTGCAG,8280 fluorescence intensity (a.u.)
15,TCTAAGCTTTCATACCTTACTTCGAACTTTTCTATTGCAACGGAGTCACCTAGTGCAG,12800 fluorescence intensity (a.u.)
16,ATCCAATCCGCGCCCCAGCTCGTGAACTTCGCCGGCGCGCCGGAGTCACCTAGTGCAG,8280 fluorescence intensity (a.u.)
17,TCAAGGCCCAATTGTCAGCAGTACGGTCTCCACTATACATCGGAGTCACCTAGTGCAG,9360 fluorescence intensity (a.u.)
18,TCGGCTCCGCGCCTCTTCGACCTCGTGGGTGGGTGTGCGGCGGAGTCACCTAGTGCAG,8170 fluorescence intensity (a.u.)
19,TGCCGCCGTCTGCGAAAATTGCATTTAGCCCCTTGCCGTCCGGAGTCACCTAGTGCAG,10000 fluorescence intensity (a.u.)
20,TTTGCTCTGTTTGTTGCGCGATTTCTTCAGAACCTGCAGGCGGAGTCACCTAGTGCAG,9240 fluorescence intensity (a.u.)
21,TATTCCTCCGTTTTTCCATTCCTGCGATTCAAAGGGGCCCCGGAGTCACCTAGTGCAG,8460 fluorescence intensity (a.u.)

row,Sequence,binding signal
1,GCTCCACATATTTACGTTGCACACCTGCGCTCGCATACAACGGAGTCACCTAGTGCAG,9440 fluorescence intensity (a.u.)
2,CAAATCAATCCGTTTCATGCATCATCATCCTCCTGTCGATCGGAGTCACCTAGTGCAG,9320 fluorescence intensity (a.u.)
3,GCTGGCTTTGTCCCCTTCATTTCTGTTCCATTTCCCATTCCGGAGTCACCTAGTGCAG,11400 fluorescence intensity (a.u.)
4,ATTAATTCGTTTATATTATCTTTTTCACGGCTTATTAATGCGGAGTCACCTAGTGCAG,8270 fluorescence intensity (a.u.)
5,ATCTCTCTGCCCAATCCGCCATCCCCATCCATCAGGCTAACGGAGTCACCTAGTGCAG,9170 fluorescence intensity (a.u.)
6,ATTGCTTTTTACCTATCCATCGGCAATGGCGTTCTTCGAGCGGAGTCACCTAGTGCAG,9550 fluorescence intensity (a.u.)
7,ATCCTCATCCTCTCTCTCCATCTCTCACCTCCTCATCCTTCGGAGTCACCTAGTGCAG,8610 fluorescence intensity (a.u.)
8,TTATTACTTTACCTTTCACATCCGTCCATCCTCACTATCACGGAGTCACCTAGTGCAG,11400 fluorescence intensity (a.u.)
9,TTATGTATATACTCTGATGATCACATGATACACATGATATCGGAGTCACCTAGTGCAG,8460 fluorescence intensity (a.u.)
10,TCCTCCGTCTCTTCGTCGACGCCCGCCGCAACCTGCCGCCCGGAGTCACCTAGTGCAG,8070 fluorescence intensity (a.u.)
11,CCTTTCCGATTACGTGTTGGACCTTGACCCTAGGCCATATCGGAGTCACCTAGTGCAG,8110 fluorescence intensity (a.u.)
12,ATGAGCCTCTGGGTCAACGCGGCGACCTGCGCGCGCTCCACGGAGTCACCTAGTGCAG,8130 fluorescence intensity (a.u.)
13,AAGTGCATTTTGTCTACATTCTTGCATTCACCATTTCACACGGAGTCACCTAGTGCAG,8340 fluorescence intensity (a.u.)
14,GACTAGTCCCTGTTTCCCAACACCATGCTTGTCTGAGTTACGGAGTCACCTAGTGCAG,9300 fluorescence intensity (a.u.)
15,TTGAGCCGTTGTTACCCATATCTTGTCTCTCTTCTTTCTCCGGAGTCACCTAGTGCAG,9300 fluorescence intensity (a.u.)
16,AGGCATCTAACTATTTACCACTTTTAGATTTGACATTTACCGGAGTCACCTAGTGCAG,9330 fluorescence intensity (a.u.)
17,AGGGATAAAGATTTCTGGTTTTGGGGTTTCGGGATGTCATCGGAGTCACCTAGTGCAG,12100 fluorescence intensity (a.u.)
18,GCTGAGGTTTTTGCTCTTTGACTTTTTGTGGTTGCTCATACGGAGTCACCTAGTGCAG,13600 fluorescence intensity (a.u.)
19,ATTTTCAATCTTAAATTTAAAGTTGATTTTGGGGTTTTTTCGGAGTCACCTAGTGCAG,9040 fluorescence intensity (a.u.)
20,GACACACAACCAAGGTCCAGTTTAGTTACCATCCTATGTTCGGAGTCACCTAGTGCAG,9240 fluorescence intensity (a.u.)
21,AAGGTCGCCGTCTCCATCTCGTCTCCCTCGCCGCCGCCTCCGGAGTCACCTAGTGCAG,10900 fluorescence intensity (a.u.)

# Some of the entries above in a different format:
row | Sequence | binding signal
3 | GCTGGCTTTGTCCCCTTCATTTCTGTTCCATTTCCCATTCCGGAGTCACCTAGTGCAG | 11400 fluorescence intensity (a.u.)
4 | ATTAATTCGTTTATATTATCTTTTTCACGGCTTATTAATGCGGAGTCACCTAGTGCAG | 8270 fluorescence intensity (a.u.)
5 | ATCTCTCTGCCCAATCCGCCATCCCCATCCATCAGGCTAACGGAGTCACCTAGTGCAG | 9170 fluorescence intensity (a.u.)
6 | ATTGCTTTTTACCTATCCATCGGCAATGGCGTTCTTCGAGCGGAGTCACCTAGTGCAG | 9550 fluorescence intensity (a.u.)

# Source: publication PMC7819943, “Rice protein-binding microarrays: a tool to detect cis-acting elements near promoter regions in rice”
